Measurements taken from the supplement of paper PMC10849652.
The other results are listed elsewhere or left out.

By UniProt entry, the sequences of proteins in these tests, tags left out. Where a name states a change or a piece, a line headed by the entry shows the natural chain unless it says otherwise.
UniProt Q14257: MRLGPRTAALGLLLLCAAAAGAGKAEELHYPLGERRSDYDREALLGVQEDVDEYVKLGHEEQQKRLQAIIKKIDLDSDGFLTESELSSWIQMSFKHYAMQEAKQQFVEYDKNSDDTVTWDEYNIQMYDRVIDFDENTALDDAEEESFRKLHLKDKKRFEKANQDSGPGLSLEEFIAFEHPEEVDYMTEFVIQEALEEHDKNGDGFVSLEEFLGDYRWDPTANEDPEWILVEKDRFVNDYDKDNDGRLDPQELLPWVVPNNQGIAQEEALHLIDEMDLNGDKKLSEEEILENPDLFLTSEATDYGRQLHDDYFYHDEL
UniProt Q04206, whole entry, looked up: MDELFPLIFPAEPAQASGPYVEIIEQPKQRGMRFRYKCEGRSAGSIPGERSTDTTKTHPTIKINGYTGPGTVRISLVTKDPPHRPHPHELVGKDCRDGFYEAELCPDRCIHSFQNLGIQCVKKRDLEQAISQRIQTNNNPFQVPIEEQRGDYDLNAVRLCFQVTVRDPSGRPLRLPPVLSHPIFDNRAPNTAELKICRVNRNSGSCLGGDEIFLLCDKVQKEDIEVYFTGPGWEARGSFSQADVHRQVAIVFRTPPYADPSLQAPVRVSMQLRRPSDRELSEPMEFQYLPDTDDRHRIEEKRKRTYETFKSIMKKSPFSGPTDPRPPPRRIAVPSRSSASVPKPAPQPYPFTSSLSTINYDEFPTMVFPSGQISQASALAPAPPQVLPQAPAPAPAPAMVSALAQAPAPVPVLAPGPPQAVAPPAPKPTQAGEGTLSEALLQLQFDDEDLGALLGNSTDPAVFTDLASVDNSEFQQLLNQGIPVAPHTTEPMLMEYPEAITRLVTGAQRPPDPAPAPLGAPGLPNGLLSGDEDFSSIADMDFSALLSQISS
UniProt Q5T160: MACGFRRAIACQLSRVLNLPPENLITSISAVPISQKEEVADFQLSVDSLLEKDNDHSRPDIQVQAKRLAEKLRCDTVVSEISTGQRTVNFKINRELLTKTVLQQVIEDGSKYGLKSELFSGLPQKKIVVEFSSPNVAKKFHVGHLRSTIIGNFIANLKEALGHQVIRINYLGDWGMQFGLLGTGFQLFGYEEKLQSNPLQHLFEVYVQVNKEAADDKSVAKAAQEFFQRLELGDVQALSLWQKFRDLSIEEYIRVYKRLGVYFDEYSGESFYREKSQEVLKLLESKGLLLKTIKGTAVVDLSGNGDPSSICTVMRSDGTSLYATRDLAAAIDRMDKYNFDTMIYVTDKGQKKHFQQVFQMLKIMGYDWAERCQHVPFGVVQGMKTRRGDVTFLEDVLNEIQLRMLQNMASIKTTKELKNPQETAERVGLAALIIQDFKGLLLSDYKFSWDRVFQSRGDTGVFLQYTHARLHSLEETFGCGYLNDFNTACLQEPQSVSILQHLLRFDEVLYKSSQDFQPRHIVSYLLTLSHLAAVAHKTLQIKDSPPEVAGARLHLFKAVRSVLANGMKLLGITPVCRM
UniProt Q8WWW0: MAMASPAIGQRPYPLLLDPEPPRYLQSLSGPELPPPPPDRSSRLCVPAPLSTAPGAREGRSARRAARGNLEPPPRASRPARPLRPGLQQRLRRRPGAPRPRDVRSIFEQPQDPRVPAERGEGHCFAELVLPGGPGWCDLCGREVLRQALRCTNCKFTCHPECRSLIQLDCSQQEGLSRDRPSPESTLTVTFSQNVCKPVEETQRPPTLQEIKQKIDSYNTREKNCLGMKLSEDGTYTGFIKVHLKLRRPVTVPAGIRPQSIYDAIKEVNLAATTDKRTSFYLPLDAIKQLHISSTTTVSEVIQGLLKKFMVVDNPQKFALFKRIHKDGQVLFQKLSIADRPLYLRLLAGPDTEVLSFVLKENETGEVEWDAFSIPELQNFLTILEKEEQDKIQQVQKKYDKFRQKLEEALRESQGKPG
UniProt Q92546: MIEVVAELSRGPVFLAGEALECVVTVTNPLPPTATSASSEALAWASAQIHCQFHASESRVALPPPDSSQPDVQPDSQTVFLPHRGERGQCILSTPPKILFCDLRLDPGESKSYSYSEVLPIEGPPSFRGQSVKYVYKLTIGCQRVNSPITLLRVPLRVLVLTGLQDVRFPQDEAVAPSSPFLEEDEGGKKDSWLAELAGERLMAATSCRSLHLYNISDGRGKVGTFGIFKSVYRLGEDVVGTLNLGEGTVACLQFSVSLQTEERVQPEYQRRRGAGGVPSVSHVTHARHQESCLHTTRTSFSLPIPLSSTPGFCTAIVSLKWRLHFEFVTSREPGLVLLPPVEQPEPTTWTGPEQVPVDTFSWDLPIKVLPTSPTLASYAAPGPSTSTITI
UniProt Q99708: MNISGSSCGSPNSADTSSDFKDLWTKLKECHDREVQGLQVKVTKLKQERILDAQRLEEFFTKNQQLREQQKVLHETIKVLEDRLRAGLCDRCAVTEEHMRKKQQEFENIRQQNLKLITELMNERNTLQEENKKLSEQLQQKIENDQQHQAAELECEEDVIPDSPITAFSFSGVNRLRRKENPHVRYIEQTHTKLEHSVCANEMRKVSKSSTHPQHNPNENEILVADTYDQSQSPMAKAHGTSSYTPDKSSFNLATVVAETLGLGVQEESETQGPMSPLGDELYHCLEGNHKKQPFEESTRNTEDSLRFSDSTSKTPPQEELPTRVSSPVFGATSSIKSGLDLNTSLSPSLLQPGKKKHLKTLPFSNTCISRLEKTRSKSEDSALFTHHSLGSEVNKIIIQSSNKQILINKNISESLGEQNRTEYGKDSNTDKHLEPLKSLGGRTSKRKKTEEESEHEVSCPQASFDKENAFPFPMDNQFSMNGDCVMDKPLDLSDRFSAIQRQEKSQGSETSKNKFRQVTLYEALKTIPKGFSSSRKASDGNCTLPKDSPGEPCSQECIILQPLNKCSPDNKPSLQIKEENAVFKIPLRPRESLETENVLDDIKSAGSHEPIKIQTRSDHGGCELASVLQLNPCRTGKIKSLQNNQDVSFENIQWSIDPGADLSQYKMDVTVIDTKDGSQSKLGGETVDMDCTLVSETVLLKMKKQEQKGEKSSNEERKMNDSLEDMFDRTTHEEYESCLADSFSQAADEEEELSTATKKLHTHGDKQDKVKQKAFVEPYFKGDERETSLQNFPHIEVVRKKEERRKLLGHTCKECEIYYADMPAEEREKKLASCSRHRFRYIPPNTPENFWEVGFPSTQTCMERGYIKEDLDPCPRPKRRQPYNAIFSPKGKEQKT
UniProt Q9Y2P8: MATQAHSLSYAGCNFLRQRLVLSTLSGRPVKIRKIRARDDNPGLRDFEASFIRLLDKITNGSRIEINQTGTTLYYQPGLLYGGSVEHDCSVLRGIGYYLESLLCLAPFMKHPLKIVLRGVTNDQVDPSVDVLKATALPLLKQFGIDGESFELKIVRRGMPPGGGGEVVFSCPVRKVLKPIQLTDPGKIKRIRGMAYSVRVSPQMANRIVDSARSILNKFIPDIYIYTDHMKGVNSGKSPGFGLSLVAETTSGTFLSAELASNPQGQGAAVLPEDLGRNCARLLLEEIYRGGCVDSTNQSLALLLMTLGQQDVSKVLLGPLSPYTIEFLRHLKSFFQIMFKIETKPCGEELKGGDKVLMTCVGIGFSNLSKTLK
UniProt Q9UKL0, whole entry, looked up: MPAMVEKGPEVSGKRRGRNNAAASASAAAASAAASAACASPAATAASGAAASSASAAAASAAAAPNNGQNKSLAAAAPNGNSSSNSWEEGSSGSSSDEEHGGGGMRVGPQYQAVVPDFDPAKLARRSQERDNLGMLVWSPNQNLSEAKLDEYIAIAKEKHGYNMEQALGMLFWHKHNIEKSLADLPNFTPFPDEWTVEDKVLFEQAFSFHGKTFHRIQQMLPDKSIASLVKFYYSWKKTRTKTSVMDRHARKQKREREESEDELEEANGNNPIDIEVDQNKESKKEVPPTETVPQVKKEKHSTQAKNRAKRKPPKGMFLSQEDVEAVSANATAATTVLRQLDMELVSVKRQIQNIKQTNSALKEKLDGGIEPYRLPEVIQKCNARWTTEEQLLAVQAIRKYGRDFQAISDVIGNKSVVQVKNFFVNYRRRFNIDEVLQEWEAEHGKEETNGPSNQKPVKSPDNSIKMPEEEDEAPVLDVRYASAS
UniProt Q02094: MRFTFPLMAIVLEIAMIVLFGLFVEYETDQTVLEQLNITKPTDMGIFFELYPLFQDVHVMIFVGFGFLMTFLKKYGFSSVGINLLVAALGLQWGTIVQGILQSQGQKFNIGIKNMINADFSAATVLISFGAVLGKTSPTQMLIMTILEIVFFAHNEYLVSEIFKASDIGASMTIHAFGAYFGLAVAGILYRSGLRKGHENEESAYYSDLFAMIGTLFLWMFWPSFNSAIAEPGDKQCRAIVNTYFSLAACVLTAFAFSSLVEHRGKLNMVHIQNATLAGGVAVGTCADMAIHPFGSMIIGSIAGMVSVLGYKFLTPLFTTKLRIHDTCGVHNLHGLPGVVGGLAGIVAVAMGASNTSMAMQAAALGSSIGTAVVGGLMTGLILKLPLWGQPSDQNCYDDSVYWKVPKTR
UniProt P06400: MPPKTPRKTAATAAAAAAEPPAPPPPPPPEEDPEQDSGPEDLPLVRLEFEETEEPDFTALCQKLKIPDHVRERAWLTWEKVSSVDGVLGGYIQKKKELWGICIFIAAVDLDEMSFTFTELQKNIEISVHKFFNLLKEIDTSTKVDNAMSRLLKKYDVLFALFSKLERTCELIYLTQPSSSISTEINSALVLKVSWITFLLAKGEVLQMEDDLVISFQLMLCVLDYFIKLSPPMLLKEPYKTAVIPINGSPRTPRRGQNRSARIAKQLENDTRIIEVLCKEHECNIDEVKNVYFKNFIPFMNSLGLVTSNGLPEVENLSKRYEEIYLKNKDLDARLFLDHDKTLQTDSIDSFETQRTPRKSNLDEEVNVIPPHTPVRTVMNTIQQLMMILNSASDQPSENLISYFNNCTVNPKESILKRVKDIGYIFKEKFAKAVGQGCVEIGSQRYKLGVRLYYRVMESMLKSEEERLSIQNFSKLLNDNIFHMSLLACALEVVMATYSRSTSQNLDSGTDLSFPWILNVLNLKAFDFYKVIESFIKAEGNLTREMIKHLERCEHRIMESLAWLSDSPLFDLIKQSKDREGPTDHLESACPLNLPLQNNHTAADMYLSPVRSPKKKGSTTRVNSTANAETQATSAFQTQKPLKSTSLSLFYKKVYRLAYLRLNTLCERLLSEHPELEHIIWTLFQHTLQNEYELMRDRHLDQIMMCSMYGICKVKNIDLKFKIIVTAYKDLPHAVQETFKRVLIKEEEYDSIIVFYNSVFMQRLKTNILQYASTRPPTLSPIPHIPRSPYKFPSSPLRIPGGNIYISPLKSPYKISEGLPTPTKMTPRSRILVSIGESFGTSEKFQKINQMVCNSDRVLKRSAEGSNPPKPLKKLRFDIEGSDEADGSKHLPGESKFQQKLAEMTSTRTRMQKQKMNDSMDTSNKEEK
UniProt Q96D71: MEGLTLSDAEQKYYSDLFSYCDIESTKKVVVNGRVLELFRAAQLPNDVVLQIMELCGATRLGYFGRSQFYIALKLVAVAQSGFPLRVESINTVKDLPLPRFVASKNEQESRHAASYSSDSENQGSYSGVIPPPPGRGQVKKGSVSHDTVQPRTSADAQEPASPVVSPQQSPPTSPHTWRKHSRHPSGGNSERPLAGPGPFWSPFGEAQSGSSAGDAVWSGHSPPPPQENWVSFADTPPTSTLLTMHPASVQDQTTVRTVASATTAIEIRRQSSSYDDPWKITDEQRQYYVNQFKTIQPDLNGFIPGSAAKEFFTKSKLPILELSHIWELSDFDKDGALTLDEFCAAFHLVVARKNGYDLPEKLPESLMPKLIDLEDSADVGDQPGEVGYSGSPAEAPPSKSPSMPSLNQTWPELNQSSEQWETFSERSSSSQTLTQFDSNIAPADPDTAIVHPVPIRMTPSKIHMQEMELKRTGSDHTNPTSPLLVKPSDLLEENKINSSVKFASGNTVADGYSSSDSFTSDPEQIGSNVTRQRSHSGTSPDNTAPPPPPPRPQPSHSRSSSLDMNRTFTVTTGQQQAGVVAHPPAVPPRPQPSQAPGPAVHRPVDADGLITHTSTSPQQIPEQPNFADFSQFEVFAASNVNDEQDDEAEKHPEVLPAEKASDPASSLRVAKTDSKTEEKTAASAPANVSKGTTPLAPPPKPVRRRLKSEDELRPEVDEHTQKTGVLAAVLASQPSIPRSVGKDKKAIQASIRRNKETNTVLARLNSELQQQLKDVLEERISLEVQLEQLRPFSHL
UniProt Q8WZ73: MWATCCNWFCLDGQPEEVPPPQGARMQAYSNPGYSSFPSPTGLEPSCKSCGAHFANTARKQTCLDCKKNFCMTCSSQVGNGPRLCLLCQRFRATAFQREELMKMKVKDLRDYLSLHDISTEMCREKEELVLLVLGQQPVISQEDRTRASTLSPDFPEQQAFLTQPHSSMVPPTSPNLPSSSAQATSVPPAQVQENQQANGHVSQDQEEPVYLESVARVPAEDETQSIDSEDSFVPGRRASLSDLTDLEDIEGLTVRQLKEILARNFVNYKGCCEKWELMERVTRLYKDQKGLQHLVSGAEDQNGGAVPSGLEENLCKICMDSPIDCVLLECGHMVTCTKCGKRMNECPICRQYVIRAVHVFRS

Columns and labels:
Assay in all cases: log2 fold change, soluble protein after heating vs DMSO (PISA); higher = thermal stabilisation; K562 lysate, 10 uM; active = over 0.2 and 3.5 SD of the protein, either way, in both replicates (recomputed)
[1] = compound: C1=CC=C(C=C1)[C@H](COC2=CC3=C(C=C2)NC(=O)N3)NC(=O)C4=CC=CN(C4=O)CC5=CC(=C(C=C5)F)F
Procedure, shortened: (§1)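 The values are log-two fold changes in thermal stability compared with solvent controls and come from duplicates. They were obtained by TMTpro 16plex LC-MS/MS, with channel sums equalised, on the supernatant after 21,000xg for 90 min. That supernatant came from crude K562 extract at 1 mg/mL protein treated with 10 μM compound for 30 min, heated for 3 min across 48°C-58°C, pooled and brought to 0.5% NP-40 at 4°C.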

[2] = compound: CC1=C(SC2=C1C(=N[C@H](C3=NN=C(N32)C)CC(=O)N)C4=CC=C(C=C4)Cl)C
Procedure, shortened: as §1

[3] = compound: CC1=C2C(=CC=C1)N=C(N(C2=O)C3=CC=CC=C3C)CN4C=NC5=C(N=CN=C54)N
Procedure, shortened: as §1

[4] = compound: Cc1sc2c(c1C)C(c1ccc(Cl)cc1)=N[C@@H](CC(=O)OC(C)(C)C)c1nnc(C)n1-2
Procedure, shortened: as §1

[5] = compound: c1ccc([C@@H]2C[C@H]2NC2CCNCC2)cc1
Procedure, shortened: as §1

Measured: log2 fold change

RBBP5 isoform 2 (UniProt Q15291)
inactive: [1] 0.213 | [2] -0.082 | [3] 0.165 | [4] -0.074

RBM25 (UniProt P49756)
inactive: [1] -0.092 | [2] 0.01 | [3] 0.077 | [4] 0.024 | [5] -0.031

REV3L (UniProt O60673)
inactive: [1] 0.003 | [2] 0.136 | [3] 0.158 | [4] -0.241

RCN2 isoform 2 (UniProt Q14257)
inactive: [1] 0.009 | [2] -0.014 | [3] -0.019 | [4] 0.04 | [5] 0.019

RFC3 (UniProt P40938)
inactive: [1] -0.032 | [2] 0.003 | [3] 0.026 | [4] 0.055 | [5] 0.024

RBM26 isoform 3 (UniProt Q5T8P6)
inactive: [1] -0.059 | [2] 0.04 | [3] 0.074 | [4] -0.047

RECQL4 (UniProt O94761)
inactive: [1] 0.002 | [2] -0.012 | [3] 0.073 | [4] -0.011 | [5] 0.154

RELA (UniProt Q04206)
inactive: [1] 0.041 | [2] 0.005 | [3] 0.008 | [4] 0.03 | [5] -0.029

RARS2 (UniProt Q5T160)
inactive: [1] -0.032 | [2] 0.041 | [3] 0.051 | [4] 0.006 | [5] 0.039

RBM41 (UniProt Q96IZ5)
inactive: [1] 0.012 | [2] 0.02

RDH13 (UniProt Q8NBN7)
inactive: [1] -0.094 | [2] 0.05 | [3] 0.016 | [4] -0.007 | [5] 0.021

RARS (UniProt P54136)
inactive: [1] -0.014 | [2] 0.038 | [3] 0.024 | [4] 0.028 | [5] 0.091

RBM23 isoform 2 (UniProt Q86U06)
inactive: [1] -0.118 | [2] -0.084 | [3] 0.06 | [4] 0.011 | [5] -0.002

RAVER1 (UniProt E9PAU2)
inactive: [1] 0.102 | [2] -0.092 | [3] 0.014 | [4] 0.041 | [5] 0.001

RASSF5 (UniProt Q8WWW0)
inactive: [1] -0.059 | [2] 0.021 | [3] -0.06 | [4] -0.183 | [5] -0.044

REV1 (UniProt Q9UBZ9)
inactive: [1] -0.014 | [2] -0.06 | [3] -0.052 | [4] 0.088 | [5] 0.022

RBX1 (UniProt P62877)
inactive: [1] 0.147 | [2] -0.028 | [3] 0.04 | [4] 0.123

RGP1 (UniProt Q92546)
inactive: [1] -0.005 | [2] -0.039 | [3] 0.055 | [4] 0.093 | [5] -0.197

REL isoform 2 (UniProt Q04864)
inactive: [1] 0.017 | [2] 0 | [3] -0.003 | [4] 0.031 | [5] 0.03

RBM26 isoform 2 (UniProt Q5T8P6)
inactive: [1] 0.005 | [2] 0.016 | [3] 0.047 | [4] 0.001 | [5] 0.084

RAPGEF6 isoform 4 (UniProt Q8TEU7)
inactive: [1] 0.008 | [2] -0.016 | [3] 0.004 | [4] -0.001 | [5] -0.03

RBM12 (UniProt Q9NTZ6)
inactive: [1] -0.032 | [2] 0.028 | [3] -0.009 | [4] -0.002 | [5] 0.013

RFC2 (UniProt P35250)
inactive: [1] -0.009 | [2] 0.006 | [3] -0.008 | [4] 0.043 | [5] -0.033

RBM12B (UniProt Q8IXT5)
inactive: [1] -0.416 | [2] -0.211

RBM15 (UniProt Q96T37)
inactive: [1] 0.16 | [2] 0.145 | [3] -0.033 | [4] 0.021 | [5] 0.199

RBL1 (UniProt P28749)
inactive: [1] -0.028 | [2] 0.106 | [3] -0.001 | [4] 0.004 | [5] 0.085

RELCH isoform 2 (UniProt Q9P260)
inactive: [1] 0.043 | [2] 0.056 | [3] 0.141 | [4] -0.001 | [5] 0.07

RAPGEF4 (UniProt Q8WZA2)
inactive: [1] 0 | [2] 0.092 | [3] 0.06 | [4] -0.274 | [5] -0.558

RBBP7 (UniProt Q16576)
inactive: [1] -0.029 | [2] 0.013 | [3] 0.009 | [4] -0.042

RDX (UniProt P35241)
inactive: [1] -0.029 | [2] -0.036 | [3] 0.003 | [4] 0.025 | [5] 0.148

RBBP4 isoform 2 (UniProt Q09028)
inactive: [1] 0.062 | [2] 0.013

RBBP8 isoform 2 (UniProt Q99708)
inactive: [1] -0.031 | [2] -0.133 | [3] 0.093 | [4] 0.046 | [5] -0.014

RCL1 (UniProt Q9Y2P8)
inactive: [1] -0.03 | [2] -0.046 | [3] -0.062 | [4] -0.042 | [5] -0.098

RBM20 (UniProt Q5T481)
inactive: [1] -0.361 | [2] 0.115 | [3] 0.068 | [4] 0.034

RELN (UniProt P78509)
inactive: [1] 0.033 | [2] -0.007 | [3] 0.025 | [4] -0.089 | [5] -0.036

RBM8A (UniProt Q9Y5S9)
inactive: [1] 0.066 | [2] 0.01 | [3] -0.061 | [4] 0.084 | [5] 0.171

Four neighbouring entries out of the list so far, quoted:
RBBP8 isoform 2 (UniProt Q99708)
inactive: [1] -0.031 | [2] -0.133 | [3] 0.093 | [4] 0.046 | [5] -0.014

RCL1 (UniProt Q9Y2P8)
inactive: [1] -0.03 | [2] -0.046 | [3] -0.062 | [4] -0.042 | [5] -0.098

RBM20 (UniProt Q5T481)
inactive: [1] -0.361 | [2] 0.115 | [3] 0.068 | [4] 0.034

RELN (UniProt P78509)
inactive: [1] 0.033 | [2] -0.007 | [3] 0.025 | [4] -0.089 | [5] -0.036

Later entries:

RCOR1 (UniProt Q9UKL0)
active: [5] 0.494
inactive: [1] -0.034 | [2] 0.03 | [3] -0.003 | [4] -0.023

RBBP9 (UniProt O75884)
inactive: [1] -0.068 | [2] 0.081 | [3] 0.028

RBM42 (UniProt Q9BTD8)
inactive: [1] -0.014 | [2] -0.003 | [3] 0.107 | [4] 0.103 | [5] -0.006

RBM6 (UniProt P78332)
inactive: [1] -0.042 | [2] 0.018 | [3] 0.009 | [4] 0.025 | [5] 0.037

RGS10 (UniProt O43665)
inactive: [1] 0.016 | [2] 0.032 | [3] -0.002 | [4] 0.011 | [5] 0.019

RAPGEF5, A0A590UJR0
inactive: [1] -0.129 | [2] 0.362 | [3] 0.098 | [4] 0.008 | [5] -0.057

RHAG (UniProt Q02094)
inactive: [1] 0.033 | [2] -0.076 | [3] 0.145 | [4] -0.066 | [5] -0.143

RBM3 (UniProt P98179)
inactive: [1] 0.054 | [2] 0.071 | [3] -0.034 | [4] -0.006 | [5] 0.021

RASA1 (UniProt P20936)
inactive: [1] -0.018 | [2] -0.009 | [3] -0.03 | [4] 0.036 | [5] 0.024

RB1 (UniProt P06400)
inactive: [1] 0.017 | [2] -0.009 | [3] -0.002 | [4] 0.012 | [5] -0.012

RFXAP (UniProt O00287)
inactive: [1] 0.081 | [2] 0.008 | [3] -0.02 | [4] -0.1 | [5] -0.077

RBBP5 (UniProt Q15291)
inactive: [1] 0.047 | [2] -0.009 | [3] -0.004 | [4] 0.006 | [5] -0.032

RFC4 (UniProt P35249)
inactive: [1] -0.026 | [2] -0.059 | [3] 0.006 | [4] 0.028 | [5] 0.01

RBBP7 isoform 2 (UniProt Q16576)
inactive: [1] -0.012 | [2] -0.009 | [3] -0.03 | [4] -0.01 | [5] -0.033

REPS1 (UniProt Q96D71)
inactive: [1] 0.021 | [2] 0.001 | [3] -0.022 | [4] -0.033 | [5] -0.035

RBM22 (UniProt Q9NW64)
inactive: [1] -0.073 | [2] 0.012 | [3] 0.036 | [4] 0.072 | [5] 0

RFFL (UniProt Q8WZ73)
inactive: [1] 0.348 | [2] 0.118 | [3] -0.11 | [4] -0.054 | [5] -0.065

RFWD3 (UniProt Q6PCD5)
inactive: [1] -0.058 | [2] 0.132 | [3] 0 | [4] -0.072 | [5] 0.049

REEP6 (UniProt Q96HR9)
inactive: [1] 0.038 | [2] -0.081 | [3] 0.005 | [4] -0.107 | [5] -0.181
